Measured values from article PMC11713712, “PFTAIRE peptide degrading cyclin Y and ameliorating cognitive deficits in mouse models of Alzheimer’s Disease” (Alzheimer's & Dementia, 2025).

Test system: cortical brain section of mouse models
Assay: Proteomic analysis of the cortical brain section of mouse models
Format: in vivo

PFTAIRE peptide: Peptide derived from the domain of cyclin‐dependent kinase 14 essential for binding to CCNY; produced by solid‐phase peptide synthesis
gene ontology of down-regulated proteins: down‐regulated proteins related to oxidative stress
gene ontology of up-regulated proteins: up‐regulated proteins related to release/transport neurotransmitter in brain synapse
